No constants are given. Whether binding was seen depends on the method and setting. For some assays here: Binding seen in cells or lysates may run through a third protein. Some entries that bind do so weakly or less than the wild type. One block for each substance: values may come before it.
Columns and labels:
[1] = biological target: G6PD, endogenous in HCC cells (human (endogenous in Bel-7402, HepG2, SMMC-7721)) (UniProt P11413); assay: proximity ligation; Duolink in situ PLA of endogenous BAG3 and G6PD in Bel-7402, HepG2 and SMMC-7721 cells; in Bel-7402 also with 10 μM uridine and 10 μM hypoxathine for 8 h (interaction unaltered)
[2] = biological target: G6PD with HA or Myc epitope tag (UniProt P11413); assay: co-IP; empty or BAG3-transduced HCCs co-transfected with HA-tagged and Myc-tagged G6PD; immunoprecipitation with anti-Myc antibody
[3] = biological target: G6PD, endogenous in HCC cells (human (endogenous in Bel-7402, HepG2, SMMC-7721)) (UniProt P11413); assay: native gel or EMSA; total proteins of HCCs infected with retrovirus containing empty or BAG3 construct, separated by native-PAGE, western blot for G6PD
[4] = biological target: GST-G6PD recombinant protein (UniProt P11413); assay: pull-down; purified His-BAG3 incubated with GST-G6PD or GST immobilized on beads, western blot; also with increasing amounts of NADP+ (0, 0.1 and 1 mM), which suppressed the interaction in a dose-dependent manner; both purified
[5] = biological target: Flag-tagged G6PD (UniProt P11413); assay: co-IP; HEK293 cells co-transfected with Myc-BAG3 and Flag-G6PD; reciprocal immunoprecipitation with Myc or Flag antibody and protein A-Sepharose, overnight at 4°C; lysis buffer 20 mM Tris-HCl, 150 mM NaCl, 2 mM EDTA, 1% Triton-X100

Amino acid sequences for entries named in this document (tags omitted).
UniProt P11413: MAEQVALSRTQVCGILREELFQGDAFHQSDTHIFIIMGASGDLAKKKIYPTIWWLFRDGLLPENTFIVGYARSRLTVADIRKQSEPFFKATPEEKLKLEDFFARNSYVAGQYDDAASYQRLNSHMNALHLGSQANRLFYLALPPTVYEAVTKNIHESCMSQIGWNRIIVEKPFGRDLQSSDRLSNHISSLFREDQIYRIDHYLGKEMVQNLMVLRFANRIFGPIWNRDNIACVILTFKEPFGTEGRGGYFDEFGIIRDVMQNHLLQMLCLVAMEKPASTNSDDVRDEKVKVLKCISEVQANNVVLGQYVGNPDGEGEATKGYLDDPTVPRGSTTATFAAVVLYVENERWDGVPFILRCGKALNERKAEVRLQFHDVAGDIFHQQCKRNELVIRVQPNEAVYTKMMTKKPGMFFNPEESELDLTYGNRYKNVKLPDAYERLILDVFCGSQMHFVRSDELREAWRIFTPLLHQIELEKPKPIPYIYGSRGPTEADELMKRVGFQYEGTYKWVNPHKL
UniProt O95817: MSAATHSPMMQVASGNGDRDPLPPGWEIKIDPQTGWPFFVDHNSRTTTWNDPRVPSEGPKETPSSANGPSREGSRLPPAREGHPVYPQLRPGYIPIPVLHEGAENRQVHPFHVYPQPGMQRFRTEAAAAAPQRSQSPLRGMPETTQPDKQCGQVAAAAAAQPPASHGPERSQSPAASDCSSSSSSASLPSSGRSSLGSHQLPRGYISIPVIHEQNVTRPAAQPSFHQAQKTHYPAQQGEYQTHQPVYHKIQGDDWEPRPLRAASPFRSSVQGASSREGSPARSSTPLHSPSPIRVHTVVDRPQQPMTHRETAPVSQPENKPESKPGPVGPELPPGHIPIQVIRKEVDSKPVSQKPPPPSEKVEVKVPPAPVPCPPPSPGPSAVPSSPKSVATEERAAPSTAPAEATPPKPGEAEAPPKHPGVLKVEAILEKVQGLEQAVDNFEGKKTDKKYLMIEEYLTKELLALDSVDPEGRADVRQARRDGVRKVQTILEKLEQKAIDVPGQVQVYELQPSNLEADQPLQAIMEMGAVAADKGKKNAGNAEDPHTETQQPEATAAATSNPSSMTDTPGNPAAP

Substance: BAG3, endogenous in HCC cells (from UniProt O95817 1-575)
binding [1]: binds

Substance: G6PD, endogenous in HCC cells (from UniProt P11413 1-515) (enzyme)
binding [3]: binds

Substance: Myc-tagged BAG3 (from UniProt O95817 1-575)
binding [5]: binds

More lines, now with the values ahead:

binding [2]: binds
Substance: G6PD with HA or Myc epitope tag (from UniProt P11413 1-515) (enzyme)

binding [4]: binds
Substance: His-BAG3 recombinant protein (from UniProt O95817 1-575)

Source: PMC4808027
